Data as given in PubChem BioAssay AID1259405 (NCATS, 2018).
Shown is one part, drawn at random, of about 50,000 reagents. Of all reagents, about 4,000 (8%) got an active call. 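Mouse siRNA library applied to hamster cells; one well for each siRNA.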 The numbers tell different reagents against one gene apart.

Aim: 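Silenced genes that increase secreted GFP made by CHO cells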 (primary screen)
System: Chinese hamster CHO-K1 ovary cells with stable secreted eGFP expression
Knock-down reagent: single siRNA against mouse genes, 0.8 pmol siRNA per well (2 µl of 400 nM stock)
Timing: 3 days
Measurement: 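Per-well intracellular GFP measured by laser scanning cytometry, plus viability from ATP luminescence, each relative to plate median of non-targeting control wells, in %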
Direction: GFP, % of control: higher = more GFP per well, higher productivity; viability (ATP), % of control: higher = more viable cells (more ATP)
Active means: 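Called active when intracellular GFP, relative to negative control, is at or above 120%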

| Target gene | reagent no. | GFP, % of control | viability (ATP), % of control | outcome |
| --- | --- | --- | --- | --- |
| Ndufb3 | 1 | 42.6 | 55.3 | inactive |
| Ndufb3 | 2 | 49.8 | 43.7 | inactive |
| Eif3b | 1 | 54.7 | 42.9 | inactive |
| Eif3b | 2 | 19.3 | 13.2 | inactive |
| Eif3b | 3 | 63.3 | 123 | inactive |
| Erap1 | 1 | 115 | 121 | inactive |
| Erap1 | 2 | 70.9 | 76.7 | inactive |
| Erap1 | 3 | 74.9 | 67.3 | inactive |
| Ccnd3 | 1 | 62.2 | 65.4 | inactive |
| Ccnd3 | 2 | 100 | 102 | inactive |
| Dppa5a | 1 | 77.8 | 68.6 | inactive |
| Dppa5a | 2 | 68.9 | 92.2 | inactive |
| Dppa5a | 3 | 133 | 53.3 | active |
| Nwd2 | 1 | 50.7 | 26.9 | inactive |
| Nwd2 | 2 | 60.1 | 66.8 | inactive |
| Nwd2 | 3 | 85.8 | 49.4 | inactive |
| Tnfsf9 | 1 | 99.1 | 71.6 | inactive |
| Tnfsf9 | 2 | 91.3 | 129 | inactive |
| Tnfsf9 | 3 | 121 | 125 | active |
| Doc2a | 1 | 64 | 86 | inactive |
| Doc2a | 2 | 164 | 113 | active |
| Doc2a | 3 | 74.8 | 91.5 | inactive |
| AY702103 | 1 | 69.2 | 72.9 | inactive |
| AY702103 | 2 | 55.5 | 57.2 | inactive |
| AY702103 | 3 | 83.1 | 51.1 | inactive |
| Or9m2 | 1 | 41.7 | 68.7 | inactive |
| Or9m2 | 2 | 47.8 | 70.7 | inactive |
| Or9m2 | 3 | 47.5 | 63.5 | inactive |
| Pwp1 | 1 | 80.3 | 59.7 | inactive |
| Pwp1 | 2 | 104 | 58.3 | inactive |
| Pwp1 | 3 | 59.6 | 78.5 | inactive |
| Eif4enif1 | 1 | 53.5 | 59.2 | inactive |
| Eif4enif1 | 2 | 91.4 | 59.2 | inactive |
| Eif4enif1 | 3 | 59.9 | 87.8 | inactive |
| Cyp2b13 | 1 | 131 | 74.2 | active |
| Cyp2b13 | 2 | 28 | 55.2 | inactive |
| Cyp2b13 | 3 | 94.8 | 100 | inactive |
| Rcc1 | 1 | 107 | 81.1 | inactive |
| Rcc1 | 2 | 122 | 71.6 | active |
| Rcc1 | 3 | 36.7 | 43 | inactive |
| Tinag | 1 | 113 | 67 | inactive |
| Tinag | 2 | 68.6 | 78.8 | inactive |
| Tinag | 3 | 65.4 | 53.4 | inactive |
| Dcaf13 | 1 | 41.2 | 41.8 | inactive |
| Dcaf13 | 2 | 67.5 | 81.8 | inactive |
| Dcaf13 | 3 | 95.9 | 101 | inactive |
| Smcp | 1 | 99 | 78.6 | inactive |
| Smcp | 2 | 62.2 | 90.7 | inactive |
| Smcp | 3 | 117 | 71.2 | inactive |
| Adam6a | 1 | 102 | 117 | inactive |
| Adam6a | 2 | 67.4 | 68.4 | inactive |
| Adam6a | 3 | 44.3 | 64.9 | inactive |
| Gnl3l | 1 | 68.7 | 52.5 | inactive |
| Gnl3l | 2 | 60.2 | 49.8 | inactive |
| Gnl3l | 3 | 61.9 | 64 | inactive |
| Cbr4 | 1 | 69.6 | 72.5 | inactive |
| Cbr4 | 2 | 77.1 | 87.1 | inactive |
| Cbr4 | 3 | 69.2 | 63.1 | inactive |
| Baiap2l2 | 1 | 32.1 | 62.5 | inactive |
| Baiap2l2 | 2 | 63.4 | 57.6 | inactive |
| Baiap2l2 | 3 | 83.5 | 73.3 | inactive |
| Hpse | 1 | 147 | 107 | active |
| Hpse | 2 | 79.7 | 91 | inactive |
| Hpse | 3 | 136 | 94.3 | active |
| Fam43a | 1 | 75.5 | 50.7 | inactive |
| Fam43a | 2 | 62.2 | 82.4 | inactive |
| Fam43a | 3 | 102 | 96.3 | inactive |

Already shown: 15 of the entries above.
| Target gene | reagent no. | GFP, % of control | viability (ATP), % of control | outcome |
| --- | --- | --- | --- | --- |
| Rcc1 | 3 | 36.7 | 43 | inactive |
| Tinag | 1 | 113 | 67 | inactive |
| Tinag | 2 | 68.6 | 78.8 | inactive |
| Tinag | 3 | 65.4 | 53.4 | inactive |
| Dcaf13 | 1 | 41.2 | 41.8 | inactive |
| Dcaf13 | 2 | 67.5 | 81.8 | inactive |
| Dcaf13 | 3 | 95.9 | 101 | inactive |
| Smcp | 1 | 99 | 78.6 | inactive |
| Smcp | 2 | 62.2 | 90.7 | inactive |
| Smcp | 3 | 117 | 71.2 | inactive |
| Adam6a | 1 | 102 | 117 | inactive |
| Adam6a | 2 | 67.4 | 68.4 | inactive |
| Adam6a | 3 | 44.3 | 64.9 | inactive |
| Gnl3l | 1 | 68.7 | 52.5 | inactive |
| Gnl3l | 2 | 60.2 | 49.8 | inactive |

The results go on:
| Target gene | reagent no. | GFP, % of control | viability (ATP), % of control | outcome |
| --- | --- | --- | --- | --- |
| Smyd5 | 1 | 88.6 | 114 | inactive |
| Smyd5 | 2 | 72.8 | 80.3 | inactive |
| Smyd5 | 3 | 58.7 | 59.4 | inactive |
| Nacc1 | 1 | 22.6 | 22.5 | inactive |
| Nacc1 | 2 | 61.8 | 67 | inactive |
| Nacc1 | 3 | 78 | 94.2 | inactive |
| Rhbdd3 | 1 | 89.9 | 48 | inactive |
| Rhbdd3 | 2 | 93.8 | 96.2 | inactive |
| Rhbdd3 | 3 | 177 | 117 | active |
| Cypt4 | 1 | 105 | 114 | inactive |
| Cypt4 | 2 | 149 | 120 | active |
| Cypt4 | 3 | 8.54 | 5.13 | inactive |
| Prss22 | 1 | 102 | 85 | inactive |
| Prss22 | 2 | 108 | 83 | inactive |
| Prss22 | 3 | 83 | 74.7 | inactive |
| Zc3hav1l | 1 | 45.3 | 38.1 | inactive |
| Zc3hav1l | 2 | 61.9 | 56.5 | inactive |
| Zc3hav1l | 3 | 88.6 | 94.6 | inactive |
| Pabpc6 | 1 | 98.8 | 56.8 | inactive |
| Pabpc6 | 2 | 104 | 68.3 | inactive |
| Pabpc6 | 3 | 121 | 110 | active |
| Tmem143 | 1 | 94.8 | 66.1 | inactive |
| Tmem143 | 2 | 127 | 93.9 | active |
| Tmem143 | 3 | 58.2 | 22.6 | inactive |
| Ndst4 | 1 | 103 | 84.6 | inactive |
| Ndst4 | 2 | 128 | 183 | active |
| Ndst4 | 3 | 97.5 | 105 | inactive |
| Glrx5 | 1 | 71 | 62.8 | inactive |
| Glrx5 | 2 | 156 | 45.9 | active |
| Glrx5 | 3 | 94.2 | 92.3 | inactive |
| Pramel7 | 1 | 143 | 108 | active |
| Pramel7 | 2 | 119 | 88 | inactive |
| Pramel7 | 3 | 70.9 | 93 | inactive |
| Clp1 | 1 | 82.8 | 92.3 | inactive |
| Clp1 | 2 | 89.9 | 68 | inactive |
| Clp1 | 3 | 96.6 | 114 | inactive |
| Slx4ip | 1 | 35.4 | 24.7 | inactive |
| Slx4ip | 2 | 52.9 | 59.9 | inactive |
| Slx4ip | 3 | 94.8 | 74.2 | inactive |
| Fbxl4 | 1 | 106 | 105 | inactive |
| Fbxl4 | 2 | 68.9 | 77.1 | inactive |
| Fbxl4 | 3 | 112 | 80.1 | inactive |
